Paper doi:10.1101/524959
These are yes or no findings as the source states them, for the method shown. For part of these data: In cells and extracts the contact can be indirect. Some entries that bind do so weakly or less than the wild type. For part of these data: Where a sequence is shown, tags or fusion partners need not be part of it.

Sequences of proteins named here, by UniProt entry; tags and fusion partners are left off.
UniProt P38811: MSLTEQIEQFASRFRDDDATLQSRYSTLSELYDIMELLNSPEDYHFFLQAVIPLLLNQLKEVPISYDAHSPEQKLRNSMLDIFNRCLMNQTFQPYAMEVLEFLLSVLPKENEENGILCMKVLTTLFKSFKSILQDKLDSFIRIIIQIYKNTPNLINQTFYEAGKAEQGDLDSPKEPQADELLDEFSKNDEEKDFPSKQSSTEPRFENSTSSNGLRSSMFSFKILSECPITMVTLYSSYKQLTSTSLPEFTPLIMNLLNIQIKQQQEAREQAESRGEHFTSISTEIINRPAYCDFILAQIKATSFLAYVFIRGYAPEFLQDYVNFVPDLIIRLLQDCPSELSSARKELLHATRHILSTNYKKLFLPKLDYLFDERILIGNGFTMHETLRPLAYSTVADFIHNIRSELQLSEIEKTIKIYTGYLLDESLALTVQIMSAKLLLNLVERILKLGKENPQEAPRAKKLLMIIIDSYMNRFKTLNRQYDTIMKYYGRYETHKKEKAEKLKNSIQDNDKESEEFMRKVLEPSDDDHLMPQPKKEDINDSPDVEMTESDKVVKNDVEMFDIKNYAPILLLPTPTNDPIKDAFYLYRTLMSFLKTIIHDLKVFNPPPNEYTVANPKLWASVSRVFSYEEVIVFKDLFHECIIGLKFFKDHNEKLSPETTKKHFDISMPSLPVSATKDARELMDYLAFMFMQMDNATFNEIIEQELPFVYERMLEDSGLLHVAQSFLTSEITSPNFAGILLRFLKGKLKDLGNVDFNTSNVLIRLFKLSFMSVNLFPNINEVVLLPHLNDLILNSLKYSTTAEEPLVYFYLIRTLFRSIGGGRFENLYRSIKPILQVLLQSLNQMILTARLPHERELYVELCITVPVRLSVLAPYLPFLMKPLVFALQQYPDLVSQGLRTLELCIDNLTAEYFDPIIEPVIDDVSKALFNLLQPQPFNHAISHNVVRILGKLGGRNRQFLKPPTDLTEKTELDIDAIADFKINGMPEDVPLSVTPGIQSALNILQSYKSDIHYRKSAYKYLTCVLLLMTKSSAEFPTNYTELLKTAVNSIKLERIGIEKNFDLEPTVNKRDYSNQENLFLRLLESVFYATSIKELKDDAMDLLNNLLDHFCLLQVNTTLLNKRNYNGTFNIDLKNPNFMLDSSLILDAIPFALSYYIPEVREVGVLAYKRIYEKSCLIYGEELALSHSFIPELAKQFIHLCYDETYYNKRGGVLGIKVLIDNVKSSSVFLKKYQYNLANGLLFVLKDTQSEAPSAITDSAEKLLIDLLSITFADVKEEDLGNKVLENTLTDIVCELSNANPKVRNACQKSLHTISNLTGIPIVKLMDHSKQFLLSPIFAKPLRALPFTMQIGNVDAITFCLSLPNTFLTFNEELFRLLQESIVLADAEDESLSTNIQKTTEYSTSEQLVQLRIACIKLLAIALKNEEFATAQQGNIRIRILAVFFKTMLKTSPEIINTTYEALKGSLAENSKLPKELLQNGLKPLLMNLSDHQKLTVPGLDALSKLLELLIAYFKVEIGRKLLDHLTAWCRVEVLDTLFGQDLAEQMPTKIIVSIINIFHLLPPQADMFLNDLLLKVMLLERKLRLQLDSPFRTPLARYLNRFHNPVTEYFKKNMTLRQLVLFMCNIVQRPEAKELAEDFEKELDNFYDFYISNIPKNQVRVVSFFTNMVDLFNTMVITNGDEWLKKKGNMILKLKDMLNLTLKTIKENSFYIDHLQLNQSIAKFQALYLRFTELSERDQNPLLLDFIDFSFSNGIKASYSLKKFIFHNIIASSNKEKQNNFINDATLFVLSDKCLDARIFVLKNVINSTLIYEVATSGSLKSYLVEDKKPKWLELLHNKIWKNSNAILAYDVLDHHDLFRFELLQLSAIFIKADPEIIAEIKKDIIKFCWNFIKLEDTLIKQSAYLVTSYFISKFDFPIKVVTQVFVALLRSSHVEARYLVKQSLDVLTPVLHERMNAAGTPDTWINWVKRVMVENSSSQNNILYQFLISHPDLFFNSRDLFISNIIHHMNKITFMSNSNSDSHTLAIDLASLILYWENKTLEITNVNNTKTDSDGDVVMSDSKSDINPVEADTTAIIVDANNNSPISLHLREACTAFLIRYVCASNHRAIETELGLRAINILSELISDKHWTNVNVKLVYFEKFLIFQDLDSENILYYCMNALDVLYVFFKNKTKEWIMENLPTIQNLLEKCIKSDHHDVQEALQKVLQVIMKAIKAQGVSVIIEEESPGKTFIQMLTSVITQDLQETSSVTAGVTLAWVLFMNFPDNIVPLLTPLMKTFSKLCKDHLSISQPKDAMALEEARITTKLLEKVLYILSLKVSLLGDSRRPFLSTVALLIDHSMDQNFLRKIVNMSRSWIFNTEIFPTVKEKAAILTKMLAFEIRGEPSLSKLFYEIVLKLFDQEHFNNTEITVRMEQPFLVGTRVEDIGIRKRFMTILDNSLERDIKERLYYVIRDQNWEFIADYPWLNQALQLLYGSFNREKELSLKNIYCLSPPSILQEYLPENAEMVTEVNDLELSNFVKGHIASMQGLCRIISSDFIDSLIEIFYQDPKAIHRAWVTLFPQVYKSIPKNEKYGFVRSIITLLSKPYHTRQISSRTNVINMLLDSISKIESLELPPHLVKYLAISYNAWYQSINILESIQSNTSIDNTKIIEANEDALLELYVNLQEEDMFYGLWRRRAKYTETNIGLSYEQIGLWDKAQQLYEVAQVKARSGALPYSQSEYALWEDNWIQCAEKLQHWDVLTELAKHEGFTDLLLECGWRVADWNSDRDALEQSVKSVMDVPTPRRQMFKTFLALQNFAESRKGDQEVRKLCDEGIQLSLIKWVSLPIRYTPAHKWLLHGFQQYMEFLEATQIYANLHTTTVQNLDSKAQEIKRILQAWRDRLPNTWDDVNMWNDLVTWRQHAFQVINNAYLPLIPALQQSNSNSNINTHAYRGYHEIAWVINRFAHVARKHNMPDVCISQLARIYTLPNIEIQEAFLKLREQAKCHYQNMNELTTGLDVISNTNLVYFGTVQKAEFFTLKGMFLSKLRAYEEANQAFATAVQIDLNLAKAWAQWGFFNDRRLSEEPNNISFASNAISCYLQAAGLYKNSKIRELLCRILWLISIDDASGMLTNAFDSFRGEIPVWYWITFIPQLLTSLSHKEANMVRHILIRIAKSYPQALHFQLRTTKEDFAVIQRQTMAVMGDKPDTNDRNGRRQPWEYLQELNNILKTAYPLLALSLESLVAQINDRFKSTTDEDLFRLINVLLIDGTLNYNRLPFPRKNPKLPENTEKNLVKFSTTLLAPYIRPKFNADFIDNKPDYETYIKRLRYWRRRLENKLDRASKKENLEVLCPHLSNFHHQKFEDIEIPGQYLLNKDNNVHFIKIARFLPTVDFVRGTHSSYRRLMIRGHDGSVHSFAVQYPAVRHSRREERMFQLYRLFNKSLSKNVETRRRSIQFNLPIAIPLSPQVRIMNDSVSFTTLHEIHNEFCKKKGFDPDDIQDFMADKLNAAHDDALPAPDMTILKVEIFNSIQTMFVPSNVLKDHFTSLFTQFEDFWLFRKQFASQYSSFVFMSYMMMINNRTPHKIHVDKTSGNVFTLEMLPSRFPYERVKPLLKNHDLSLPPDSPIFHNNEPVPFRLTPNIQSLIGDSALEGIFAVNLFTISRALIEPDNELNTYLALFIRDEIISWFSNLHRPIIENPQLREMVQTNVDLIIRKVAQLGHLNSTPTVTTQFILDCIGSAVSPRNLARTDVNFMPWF

Assays:
[1] = target: T1, GST fused to S. cerevisiae (Sc) Spt20 HIT region (residues 468-537) (S. cerevisiae) (UniProt P50875); assay: pull-down
T1 sequence: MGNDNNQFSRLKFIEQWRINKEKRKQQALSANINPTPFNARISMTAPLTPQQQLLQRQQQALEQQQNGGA

[2] = target: T2, GST fused to S. pombe (Sp) Spt20 HIT region (residues 282-324) (S. pombe) (UniProt O14174); assay: pull-down
T2 sequence: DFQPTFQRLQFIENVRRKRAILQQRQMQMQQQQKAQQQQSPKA

[3] = target: T3, S. cerevisiae Spt20 (S. cerevisiae) (UniProt P50875); assay: tandem affinity purification
T3 sequence: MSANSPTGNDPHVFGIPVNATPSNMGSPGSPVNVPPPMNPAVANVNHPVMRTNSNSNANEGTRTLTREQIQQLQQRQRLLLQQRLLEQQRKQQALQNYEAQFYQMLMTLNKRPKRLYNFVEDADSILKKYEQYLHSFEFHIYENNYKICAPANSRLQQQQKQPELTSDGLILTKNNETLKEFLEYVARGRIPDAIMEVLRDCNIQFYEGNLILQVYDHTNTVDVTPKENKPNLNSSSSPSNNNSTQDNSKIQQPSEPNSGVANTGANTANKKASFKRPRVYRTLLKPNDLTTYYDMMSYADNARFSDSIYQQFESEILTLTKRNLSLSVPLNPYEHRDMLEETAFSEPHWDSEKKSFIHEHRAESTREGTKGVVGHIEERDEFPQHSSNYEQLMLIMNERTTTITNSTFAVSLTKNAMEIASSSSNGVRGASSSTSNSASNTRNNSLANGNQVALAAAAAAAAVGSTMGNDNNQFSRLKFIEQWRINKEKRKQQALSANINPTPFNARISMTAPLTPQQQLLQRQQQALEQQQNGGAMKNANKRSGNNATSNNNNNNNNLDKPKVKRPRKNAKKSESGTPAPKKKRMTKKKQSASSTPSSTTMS

Row | Substance | binding [1] | binding [2] | binding [3]
1 | FLAG-Tra1 (from UniProt Q9HFE8 1-3661) | binds | binds | –
2 | S. cerevisiae Tra1 (from UniProt P38811 1-3744) | – | – | binds
